According to PubChem BioAssay (NCI):
Shown are results outside the selection of hits, which stands elsewhere. Calls of active or inactive are those of the source. Rule as the data show it: active = growth inhibition above about 70%; inactive = the rest.

Columns and labels:
[1] = NCI Yeast Anticancer Drug Screen. Data for the wt2 strain (AID 169);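 also: 0% = growth of vehicle-treated yeast cultures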; settings: S. cerevisiae wt2 strain growth inhibition, hits give high values
In short: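 Treated yeast vs. vehicle-treated yeast: growth inhibition determined.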

[2] = NCI Yeast Anticancer Drug Screen. Data for the mlh1 strain (AID 171);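 also: 0% = growth of vehicle-treated control cultures of the same strain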; settings: S. cerevisiae mlh1 strain growth inhibition, hits give high values
In short: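 A yeast strain with a defined genetic lesion serves as the test organism. Cultures receive compound or vehicle, and growth is measured.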

[3] = NCI Yeast Anticancer Drug Screen. Data for the sgs1 strain (AID 173);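 also: 0% = growth of vehicle-only control cultures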; settings: S. cerevisiae sgs1 mutant, hits give high values
In short: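 A genetically defined yeast mutant is incubated with the test compound, and its growth is compared to that of the same strain given vehicle.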

[4] = NCI Yeast Anticancer Drug Screen. Data for the rad18 strain (AID 177); settings: S. cerevisiae rad18 mutant growth inhibition, hits give high values
In short: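 Measured value is growth inhibition of a yeast strain bearing a DNA repair alteration, referenced to vehicle-treated cells.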

[5] = NCI Yeast Anticancer Drug Screen. Data for the wt1 strain (AID 149);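 also: 0% = growth of vehicle-treated wt1 cultures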; settings: S. cerevisiae wt1 strain (SPY 50644) growth inhibition, hits give high values
In short: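 Readout: yeast growth inhibition, normalised to vehicle controls, in the wt1 strain exposed to test compounds.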

[6] = NCI Yeast Anticancer Drug Screen. Data for the rad50EPP+ strain (AID 151);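 also: 0% = growth of vehicle-treated control cultures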; settings: S. cerevisiae rad50 mutant strain, hits give high values
In short: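 Read-out is yeast growth inhibition relative to vehicle; cells used were the rad50EPP+ strain.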

[7] = NCI Yeast Anticancer Drug Screen. Data for the rad14 strain (AID 159);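 also: 0% = growth of vehicle-treated control cultures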; settings: S. cerevisiae rad14 strain growth inhibition, hits give high values
In short: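 Compound-treated yeast with a defined DNA-repair lesion; growth inhibition normalised to vehicle-treated cultures.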

[8] = NCI Yeast Anticancer Drug Screen. Data for the CLN2oe strain (AID 163);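 also: 0% = growth of vehicle-only control cultures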; settings: S. cerevisiae CLN2oe strain, hits give high values
In short: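 Whole-cell yeast growth assay. A strain engineered for altered cell-cycle control received compound, and inhibition relative to vehicle-treated cultures was recorded.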

[9] = NCI Yeast Anticancer Drug Screen. Data for the rad52 strain (AID 147);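 also: 0% = growth of vehicle-treated control cultures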; settings: S. cerevisiae rad52 mutant growth inhibition, hits give high values
In short: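 Here a repair-compromised yeast strain receives each compound; its growth is then quantified and normalised to vehicle-only controls.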

[10] = NCI Yeast Anticancer Drug Screen. Data for the mgt1 strain (AID 153); settings: S. cerevisiae mgt1 mutant growth inhibition, hits give high values
In short: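 Measured: inhibition of mgt1 yeast growth by compound, normalized to vehicle-treated cultures.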

Measured: growth inhibition

COc1ccc2c(c1)N(CCC1CCCCN1C)c1ccccc1S2 (stereo not given)
inactive: [1]; at 1.2 µM -2% | [1]; at 3.7 µM -1% | [1]; at 11.0 µM -3% | [1]; at 33.0 µM -2% | [1]; at 100.0 µM 26% | [2]; at 1.2 µM -3% | [2]; at 3.7 µM -1% | [2]; at 11.0 µM -2% | [2]; at 33.0 µM -26% | [2]; at 100.0 µM 26% | [3]; at 1.2 µM -4% | [3]; at 3.7 µM -4% | [3]; at 11.0 µM -5% | [3]; at 33.0 µM -2% | [3]; at 100.0 µM 40% | [4]; at 1.2 µM -17% | [4]; at 3.7 µM -14% | [4]; at 11.0 µM -44% | [4]; at 33.0 µM -17% | [4]; at 100.0 µM 16%

CCOC(=O)Cc1[nH]c(C(=O)OCC)c(C)c1C(=O)OCC
inactive: [5]; at 1.2 µM -2% | [5]; at 3.7 µM 1% | [5]; at 11.0 µM -4% | [5]; at 33.0 µM 1% | [5]; at 100.0 µM -3% | [6]; at 1.2 µM 4% | [6]; at 3.7 µM 7% | [6]; at 11.0 µM 11% | [6]; at 33.0 µM 14% | [6]; at 100.0 µM 18% | [7]; at 1.2 µM -3% | [7]; at 3.7 µM -2% | [7]; at 11.0 µM -4% | [7]; at 33.0 µM -3% | [7]; at 100.0 µM -2% | [8]; at 1.2 µM 0% | [8]; at 3.7 µM -8% | [8]; at 11.0 µM -1% | [8]; at 33.0 µM -2% | [8]; at 100.0 µM 1% | [1]; at 1.2 µM -2% | [1]; at 3.7 µM -2% | [1]; at 11.0 µM -5% | [1]; at 33.0 µM 1% | [1]; at 100.0 µM -2% | [2]; at 1.2 µM 2% | [2]; at 3.7 µM -1% | [2]; at 11.0 µM 0% | [2]; at 33.0 µM -1% | [2]; at 100.0 µM 0% | [3]; at 1.2 µM -2% | [3]; at 3.7 µM -2% | [3]; at 11.0 µM 0% | [3]; at 33.0 µM 2% | [3]; at 100.0 µM 2% | [4]; at 1.2 µM -2% | [4]; at 3.7 µM -6% | [4]; at 11.0 µM -8% | [4]; at 33.0 µM -5% | [4]; at 100.0 µM -5%

CCN(CCO)C(C(=O)c1ccc(-c2ccccc2)cc1)c1ccc(-c2ccccc2)cc1 (stereo not given)
inactive: [9]; at 1.2 µM 0% | [9]; at 3.7 µM 0% | [9]; at 11.0 µM -1% | [9]; at 33.0 µM -2% | [9]; at 100.0 µM -4% | [5]; at 1.2 µM -1% | [5]; at 3.7 µM -1% | [5]; at 11.0 µM -2% | [5]; at 33.0 µM -1% | [5]; at 100.0 µM -2% | [6]; at 1.2 µM -2% | [6]; at 3.7 µM 0% | [6]; at 11.0 µM 1% | [6]; at 33.0 µM 0% | [6]; at 100.0 µM 3% | [10]; at 1.2 µM -2% | [10]; at 3.7 µM -1% | [10]; at 11.0 µM -4% | [10]; at 33.0 µM -2% | [10]; at 100.0 µM -4% | [7]; at 1.2 µM -1% | [7]; at 3.7 µM -2% | [7]; at 11.0 µM -3% | [7]; at 33.0 µM -5% | [7]; at 100.0 µM -5% | [8]; at 1.2 µM 0% | [8]; at 3.7 µM -3% | [8]; at 11.0 µM 0% | [8]; at 33.0 µM 1% | [8]; at 100.0 µM -1% | [1]; at 1.2 µM -2% | [1]; at 3.7 µM -2% | [1]; at 11.0 µM -2% | [1]; at 33.0 µM -2% | [1]; at 100.0 µM -2% | [3]; at 1.2 µM -1% | [3]; at 3.7 µM -1% | [3]; at 11.0 µM -1% | [3]; at 33.0 µM -1% | [3]; at 100.0 µM -1% | [4]; at 1.2 µM -3% | [4]; at 3.7 µM -3% | [4]; at 11.0 µM -2% | [4]; at 33.0 µM -4% | [4]; at 100.0 µM -4%

Already shown: 2 of the compounds above.
COc1ccc2c(c1)N(CCC1CCCCN1C)c1ccccc1S2 (stereo not given)
inactive: [1]; at 1.2 µM -2% | [1]; at 3.7 µM -1% | [1]; at 11.0 µM -3% | [1]; at 33.0 µM -2% | [1]; at 100.0 µM 26% | [2]; at 1.2 µM -3% | [2]; at 3.7 µM -1% | [2]; at 11.0 µM -2% | [2]; at 33.0 µM -26% | [2]; at 100.0 µM 26% | [3]; at 1.2 µM -4% | [3]; at 3.7 µM -4% | [3]; at 11.0 µM -5% | [3]; at 33.0 µM -2% | [3]; at 100.0 µM 40% | [4]; at 1.2 µM -17% | [4]; at 3.7 µM -14% | [4]; at 11.0 µM -44% | [4]; at 33.0 µM -17% | [4]; at 100.0 µM 16%

CCOC(=O)Cc1[nH]c(C(=O)OCC)c(C)c1C(=O)OCC
inactive: [5]; at 1.2 µM -2% | [5]; at 3.7 µM 1% | [5]; at 11.0 µM -4% | [5]; at 33.0 µM 1% | [5]; at 100.0 µM -3% | [6]; at 1.2 µM 4% | [6]; at 3.7 µM 7% | [6]; at 11.0 µM 11% | [6]; at 33.0 µM 14% | [6]; at 100.0 µM 18% | [7]; at 1.2 µM -3% | [7]; at 3.7 µM -2% | [7]; at 11.0 µM -4% | [7]; at 33.0 µM -3% | [7]; at 100.0 µM -2% | [8]; at 1.2 µM 0% | [8]; at 3.7 µM -8% | [8]; at 11.0 µM -1% | [8]; at 33.0 µM -2% | [8]; at 100.0 µM 1% | [1]; at 1.2 µM -2% | [1]; at 3.7 µM -2% | [1]; at 11.0 µM -5% | [1]; at 33.0 µM 1% | [1]; at 100.0 µM -2% | [2]; at 1.2 µM 2% | [2]; at 3.7 µM -1% | [2]; at 11.0 µM 0% | [2]; at 33.0 µM -1% | [2]; at 100.0 µM 0% | [3]; at 1.2 µM -2% | [3]; at 3.7 µM -2% | [3]; at 11.0 µM 0% | [3]; at 33.0 µM 2% | [3]; at 100.0 µM 2% | [4]; at 1.2 µM -2% | [4]; at 3.7 µM -6% | [4]; at 11.0 µM -8% | [4]; at 33.0 µM -5% | [4]; at 100.0 µM -5%

Next part.

COC(=O)C1(NC(=O)C(CC(=O)OCc2ccccc2)NC(=O)OCc2ccccc2)CCCCCCC1 (stereo not given)
inactive: [5]; at 1.2 µM -2% | [5]; at 3.7 µM -3% | [5]; at 11.0 µM -6% | [5]; at 33.0 µM 14% | [5]; at 100.0 µM 22% | [6]; at 1.2 µM 1% | [6]; at 3.7 µM 3% | [6]; at 11.0 µM 13% | [6]; at 33.0 µM 13% | [6]; at 100.0 µM 2% | [10]; at 1.2 µM -2% | [10]; at 3.7 µM -5% | [10]; at 11.0 µM -7% | [10]; at 33.0 µM 36% | [10]; at 100.0 µM 27% | [7]; at 1.2 µM -2% | [7]; at 3.7 µM -5% | [7]; at 11.0 µM -8% | [7]; at 33.0 µM 7% | [7]; at 100.0 µM 8% | [8]; at 1.2 µM -4% | [8]; at 3.7 µM -10% | [8]; at 11.0 µM -7% | [8]; at 33.0 µM 41% | [8]; at 100.0 µM 43% | [1]; at 1.2 µM -1% | [1]; at 3.7 µM -1% | [1]; at 11.0 µM 0% | [1]; at 33.0 µM 25% | [1]; at 100.0 µM 26% | [2]; at 1.2 µM -1% | [2]; at 3.7 µM -1% | [2]; at 11.0 µM -1% | [2]; at 33.0 µM 33% | [2]; at 100.0 µM 36% | [3]; at 1.2 µM 0% | [3]; at 3.7 µM 2% | [3]; at 11.0 µM 6% | [3]; at 33.0 µM 41% | [3]; at 100.0 µM 42% | [4]; at 1.2 µM 0% | [4]; at 3.7 µM 0% | [4]; at 11.0 µM 26% | [4]; at 33.0 µM 27% | [4]; at 100.0 µM 29%

O=C(O)CCc1c2ccc(=O)c(O)c-2oc2c(O)c(O)ccc12
inactive: [9]; at 1.2 µM -3% | [9]; at 3.7 µM -6% | [9]; at 11.0 µM -6% | [9]; at 33.0 µM -5% | [9]; at 100.0 µM 2% | [5]; at 1.2 µM 1% | [5]; at 3.7 µM 1% | [5]; at 11.0 µM 5% | [5]; at 33.0 µM 8% | [5]; at 100.0 µM 9% | [6]; at 1.2 µM -7% | [6]; at 3.7 µM -14% | [6]; at 11.0 µM -31% | [6]; at 33.0 µM -39% | [6]; at 100.0 µM -35% | [10]; at 1.2 µM 0% | [10]; at 3.7 µM 0% | [10]; at 11.0 µM 0% | [10]; at 33.0 µM 1% | [10]; at 100.0 µM 2% | [7]; at 1.2 µM -1% | [7]; at 3.7 µM -8% | [7]; at 11.0 µM -16% | [7]; at 33.0 µM -49% | [7]; at 100.0 µM 1% | [8]; at 1.2 µM 1% | [8]; at 3.7 µM -1% | [8]; at 11.0 µM -12% | [8]; at 33.0 µM -20% | [8]; at 100.0 µM -15% | [1]; at 1.2 µM -1% | [1]; at 3.7 µM 1% | [1]; at 11.0 µM 1% | [1]; at 33.0 µM 10% | [1]; at 100.0 µM 13% | [2]; at 1.2 µM -1% | [2]; at 3.7 µM 1% | [2]; at 11.0 µM -2% | [2]; at 33.0 µM -14% | [2]; at 100.0 µM 2% | [3]; at 1.2 µM 1% | [3]; at 3.7 µM 2% | [3]; at 11.0 µM 3% | [3]; at 33.0 µM 9% | [3]; at 100.0 µM 13% | [4]; at 1.2 µM -17% | [4]; at 3.7 µM -11% | [4]; at 11.0 µM -51% | [4]; at 33.0 µM -57% | [4]; at 100.0 µM -7%

CC(Oc1ccc(Oc2cnc3ccc(Cl)cc3n2)cc1)C(=O)O (stereo not given)
inactive: [9]; at 1.2 µM 7% | [9]; at 3.7 µM 7% | [9]; at 11.0 µM 9% | [9]; at 33.0 µM 8% | [9]; at 100.0 µM 35% | [5]; at 1.2 µM 3% | [5]; at 3.7 µM 3% | [5]; at 11.0 µM 1% | [5]; at 33.0 µM 3% | [5]; at 100.0 µM 24% | [6]; at 1.2 µM 2% | [6]; at 3.7 µM 1% | [6]; at 11.0 µM 0% | [6]; at 33.0 µM 1% | [6]; at 100.0 µM 2% | [10]; at 1.2 µM 3% | [10]; at 3.7 µM 2% | [10]; at 11.0 µM 4% | [10]; at 33.0 µM 2% | [10]; at 100.0 µM 43% | [7]; at 1.2 µM 4% | [7]; at 3.7 µM 2% | [7]; at 11.0 µM 5% | [7]; at 33.0 µM 9% | [7]; at 100.0 µM 27% | [8]; at 1.2 µM 3% | [8]; at 3.7 µM 3% | [8]; at 11.0 µM 6% | [8]; at 33.0 µM 10% | [8]; at 100.0 µM 31% | [1]; at 1.2 µM 2% | [1]; at 3.7 µM 2% | [1]; at 11.0 µM 3% | [1]; at 33.0 µM 11% | [1]; at 100.0 µM 39% | [2]; at 1.2 µM 3% | [2]; at 3.7 µM 2% | [2]; at 11.0 µM 3% | [2]; at 33.0 µM 13% | [2]; at 100.0 µM 37% | [3]; at 1.2 µM 4% | [3]; at 3.7 µM 2% | [3]; at 11.0 µM 1% | [3]; at 33.0 µM 24% | [3]; at 100.0 µM 55% | [4]; at 1.2 µM 5% | [4]; at 3.7 µM 6% | [4]; at 11.0 µM 9% | [4]; at 33.0 µM 19% | [4]; at 100.0 µM 45%
